PubChem BioAssay AID1259254, NCATS, 2017

Screen: 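Finding genes that stop cells copying their DNA twice in one cycle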 (primary screen)
System: human HCT116 colorectal cancer cells
Reagent: single siRNA against human genes
Time to read-out: 3 days
Measurement: 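Nuclei stained with Hoechst and imaged; cell-cycle phase assigned by DNA content; G2 share scaled per plate, non-targeting siRNA 0%, GMNN siRNA 100%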
Reading the numbers: G2 robust z-score: higher = more G2 cells, more excess DNA replication
Rule for the call: 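Active siRNAs have a G2 robust z of 5 or more median absolute deviations over the median, which in these data means about 38% or higher of GMNN control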
The whole screen tested about 59,000 reagents; shown is an unselected part. About 1,550 of them (2.6%) count as active. 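G2 share is only a proxy for re-replication; each gene was hit by three separate siRNAs, and active genes were retested.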 The numbers tell different reagents against one gene apart. Further read-outs or replicates are left out here. Reagent sequences are not shown. Not stated in the record: the amount of reagent.

| target | reagent no. | G2 robust z-score | activity call |
| --- | --- | --- | --- |
| AK3 (GeneID 50808) | 1 | -0.441 | inactive |
| AK3 (GeneID 50808) | 2 | -0.113 | inactive |
| AK3 (GeneID 50808) | 3 | -0.364 | inactive |
| RGPD4-DT (GeneID 729121) | 1 | 0.0477 | inactive |
| RGPD4-DT (GeneID 729121) | 2 | -0.267 | inactive |
| RGPD4-DT (GeneID 729121) | 3 | 0.854 | inactive |
| TSNAXIP1 (GeneID 55815) | 1 | -0.956 | inactive |
| TSNAXIP1 (GeneID 55815) | 2 | -1.03 | inactive |
| TSNAXIP1 (GeneID 55815) | 3 | -0.391 | inactive |
| CLPS (GeneID 1208) | 1 | 1.29 | inactive |
| CLPS (GeneID 1208) | 2 | 1.91 | inactive |
| CLPS (GeneID 1208) | 3 | -0.229 | inactive |
| C6orf52 (GeneID 347744) | 1 | -0.0978 | inactive |
| C6orf52 (GeneID 347744) | 2 | 0.126 | inactive |
| C6orf52 (GeneID 347744) | 3 | -1.1 | inactive |
| CRADD (GeneID 8738) | 1 | 2.21 | inactive |
| CRADD (GeneID 8738) | 2 | -0.605 | inactive |
| CRADD (GeneID 8738) | 3 | -1.27 | inactive |
| ZNF438 (GeneID 220929) | 1 | 0.279 | inactive |
| ZNF438 (GeneID 220929) | 2 | -0.633 | inactive |
| ZNF438 (GeneID 220929) | 3 | 2.38 | inactive |
| RAD50 (GeneID 10111) | 1 | -0.0945 | inactive |
| RAD50 (GeneID 10111) | 2 | 0.348 | inactive |
| RAD50 (GeneID 10111) | 3 | 0.85 | inactive |
| CKM (GeneID 1158) | 1 | -1.59 | inactive |
| CKM (GeneID 1158) | 2 | -0.162 | inactive |
| CKM (GeneID 1158) | 3 | -0.0465 | inactive |
| ATG2A (GeneID 23130) | 1 | 4.09 | inactive |
| ATG2A (GeneID 23130) | 2 | 0.0106 | inactive |
| ATG2A (GeneID 23130) | 3 | -0.0829 | inactive |
| HJURP (GeneID 55355) | 1 | -0.684 | inactive |
| HJURP (GeneID 55355) | 2 | -0.0289 | inactive |
| HJURP (GeneID 55355) | 3 | 0.817 | inactive |
| CD177 (GeneID 57126) | 1 | 0.612 | inactive |
| CD177 (GeneID 57126) | 2 | 1.99 | inactive |
| CD177 (GeneID 57126) | 3 | -0.72 | inactive |
| DPM2 (GeneID 8818) | 1 | -0.776 | inactive |
| DPM2 (GeneID 8818) | 2 | -1.07 | inactive |
| DPM2 (GeneID 8818) | 3 | 0.503 | inactive |
| APOC4 (GeneID 346) | 1 | 4.4 | inactive |
| APOC4 (GeneID 346) | 2 | -0.38 | inactive |
| APOC4 (GeneID 346) | 3 | -0.268 | inactive |
| NRK (GeneID 203447) | 1 | -0.101 | inactive |
| NRK (GeneID 203447) | 2 | -0.72 | inactive |
| NRK (GeneID 203447) | 3 | -0.358 | inactive |
| IARS1 (GeneID 3376) | 1 | -0.751 | inactive |
| IARS1 (GeneID 3376) | 2 | -0.541 | inactive |
| IARS1 (GeneID 3376) | 3 | -1 | inactive |

A few values from above:
DPM2 (GeneID 8818) #3, G2 robust z-score = 0.503
CKM (GeneID 1158) #3, G2 robust z-score: -0.0465
APOC4 (GeneID 346) #2, G2 robust z-score → -0.38
CKM (GeneID 1158) #1, activity call → inactive
Entry for NRK (GeneID 203447) #2 under “G2 robust z-score”: -0.72

Additional entries follow.
| target | reagent no. | G2 robust z-score | activity call |
| --- | --- | --- | --- |
| CLN8 (GeneID 2055) | 1 | -0.0367 | inactive |
| CLN8 (GeneID 2055) | 2 | -0.384 | inactive |
| CLN8 (GeneID 2055) | 3 | -0.236 | inactive |
| DCLK3 (GeneID 85443) | 1 | 0.568 | inactive |
| DCLK3 (GeneID 85443) | 2 | -0.538 | inactive |
| DCLK3 (GeneID 85443) | 3 | 1.55 | inactive |
| EPN1 (GeneID 29924) | 1 | 1.29 | inactive |
| EPN1 (GeneID 29924) | 2 | -0.439 | inactive |
| EPN1 (GeneID 29924) | 3 | 1.86 | inactive |
| LINC00545 (GeneID 440132) | 1 | 0.0316 | inactive |
| LINC00545 (GeneID 440132) | 2 | 1.54 | inactive |
| LINC00545 (GeneID 440132) | 3 | -0.396 | inactive |
| EVA1C (GeneID 59271) | 1 | 0.556 | inactive |
| EVA1C (GeneID 59271) | 2 | -0.471 | inactive |
| EVA1C (GeneID 59271) | 3 | -0.934 | inactive |
| CMC1 (GeneID 152100) | 1 | 1.07 | inactive |
| CMC1 (GeneID 152100) | 2 | -1.09 | inactive |
| CMC1 (GeneID 152100) | 3 | 0.159 | inactive |
| TSACC (GeneID 128229) | 1 | -0.737 | inactive |
| TSACC (GeneID 128229) | 2 | 2.62 | inactive |
| TSACC (GeneID 128229) | 3 | 0.239 | inactive |
| C20orf202 (GeneID 400831) | 1 | -0.789 | inactive |
| C20orf202 (GeneID 400831) | 2 | 1.52 | inactive |
| C20orf202 (GeneID 400831) | 3 | 2.01 | inactive |
| NBPF11 (GeneID 200030) | 1 | -0.807 | inactive |
| NBPF11 (GeneID 200030) | 2 | -0.586 | inactive |
| NBPF11 (GeneID 200030) | 3 | -0.105 | inactive |
| SLC39A10 (GeneID 57181) | 1 | -0.744 | inactive |
| SLC39A10 (GeneID 57181) | 2 | 0.956 | inactive |
| SLC39A10 (GeneID 57181) | 3 | 0.317 | inactive |
| LHX6 (GeneID 26468) | 1 | -0.974 | inactive |
| LHX6 (GeneID 26468) | 2 | 3.93 | inactive |
| LHX6 (GeneID 26468) | 3 | -0.0938 | inactive |
| SPINK4 (GeneID 27290) | 1 | -0.618 | inactive |
| SPINK4 (GeneID 27290) | 2 | 0.13 | inactive |
| SPINK4 (GeneID 27290) | 3 | -0.331 | inactive |
| TNNT2 (GeneID 7139) | 1 | 5.45 | active |
| TNNT2 (GeneID 7139) | 2 | 1.01 | inactive |
| TNNT2 (GeneID 7139) | 3 | -0.209 | inactive |
